Laboratory results: patent US11974551B2, “L-serine compositions, methods and uses for treating neurodegenerative diseases and disorders” (priority 2011, dated 2024)

Tested on: MRC-5 cells
Assay: Incorporation of 3H-BMAA radiolabel into cell proteins (TCA precipitation, liquid scintillation counting)
Assay type: cell-based, human
Details: 3H-BMAA 31.25 nM
Procedure: MRC-5 cells were incubated with ^3H-BMAA (31.25 nM) in HBSS containing 10% FCS. After 2, 4, and 16 hours, cells were washed three times in phosphate buffered saline and lysed by freeze-thawing in Triton X-100. The protein concentration in the lysate was determined using the bicinchoninic acid assay (BCA) (Smith, et al., Anal Biochem 150, 76-85 (1985)) (and radiolabel in the cell lysate quantified by liquid scintillation counting (LSC). Cell proteins were then isolated by trichloroacetic acid (TCA) (5%) precipitation washed three times in TCA (5%) and dissolved in formic acid. […]
To examine the ability of individual amino acids to reduce incorporation or radiolabel into proteins, MRC-5 cells were incubated with ^3H-BMAA (31.25 nM) for 16 hours in the presence of individual amino acids (250 μM) and the radiolabel present in the cell proteins assessed as before. […] Incorporation of radiolabel was determined relative to cells incubated in medium containing no serine. MRC-5 cells were then incubated with ^3H-BMAA (31.25 nM) for 16 hours in HBSS alone, HBSS containing all 20 protein amino acids (400 μM) or 19 protein amino acids except L-serine and the amount of radiolabel in cell protein assessed as before.

## CNC[C@H](N)C(=O)O [^3H-BMAA]
HBSS with 10% FCS (amino acid depleted), 2, 4 and 16 hours
  radiolabel in cell lysates (uptake of radiolabel by cells): time-dependent increase
HBSS with 10% FCS, 2, 4 and 16 hours
  radiolabel associated with cell proteins: a proportion of which was associated with cell proteins
